{
  "source": "patent US10239830B2",
  "about": "“Benzenesulfonamide upregulators of NPC1 for Neimann-Pick disease and other lysosomal storage disorders” (ICAHN SCHOOL OF MEDICINE AT MOUNT SINAI, priority 2015, dated 2019)",
  "system": "NPC3 cells",
  "experiment": "VTB-GL-3 assay, NPC3 cells",
  "type": "cell-based, human",
  "settings": "NPC3 cells treated for 3 days",
  "note": "Some of these results come from one statement about several compounds together.",
  "data": [
    {"smiles": "COc1ccc(NC(=O)c2[nH]c(C)c(C(C)=O)c2C)cc1S(=O)(=O)Nc1ccc(Br)cc1", "note": "[Example 36]", "values": [
      {"measurement": "reduction of lipid storage (fluorescence intensity of VTB staining)", "value": "greater than 90%"}
    ]}
  ]
}
